Data as given in paper doi:10.1101/2024.08.12.607668 (bioRxiv, 2024).
No constants are given. Whether binding was seen depends on the method and setting. Some results given as binding are weak or reduced against the parent protein; the word gives no strength. Sequences can lack the tags named with a protein.

Legend:
[1] = molecular target: T1, AbrB from B. subtilis 168, full-length, His6-tagged (B. subtilis 168) (UniProt P08874); test: native gel or EMSA
T1 sequence: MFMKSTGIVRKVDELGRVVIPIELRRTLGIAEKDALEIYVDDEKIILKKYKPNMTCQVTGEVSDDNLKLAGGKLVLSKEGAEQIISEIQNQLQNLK

[2] = molecular target: T1, AbrB from B. subtilis 168, full-length, His6-tagged (B. subtilis 168); test: circular dichroism

B1: AbrB antirepressor AbbA from B. subtilis 168, His6-tagged (natural protein, UniProt O31697 1-65, looked up)
chain: MRMSLIGERFTEEEQKLLLNILINHEYAIELLSSEINDIETGTKNVDGTTYKKLVTLYDRFRFEN
[1]
  binding: binds
[2]
  binding: binds
